The text below walks through data of PubChem BioAssay AID2685 (National Center for Advancing Translational Sciences (NCATS), 2010).

This is one part of the list. Further columns of the screen follow, without active or inactive calls. The list favours compounds with an active or inconclusive main result. Words in brackets tell the shape of the fitted curve; partial curves, single points and poor fits give uncertain potencies.

The experiment can be described thus: qHTS Assay for Lipid Storage Modulators in Drosophila S3 Cells.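 As to cell number change: cells counted by Cell Tracker Red CMTPX staining in the red channel.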 The note with it: BODIPY lipid droplet fluorescence, 18-24 h; for cell number change: measured here: cell count max response, cells fed with added oleic acid. Summed up: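 Laser-scanning cytometry quantifies lipid droplet accumulation (500–530 nm total intensity; droplet/cell object ratio) in oleic acid-fed (400 uM added) Drosophila S3 cells treated with a concentration series. 20 uM Triacsin C defined 100% inhibition.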

The mark [1] stands for this setting: measured here: cell number channel AC50, cells fed with added oleic acid.
Where [2] appears, read: measured here: lipid fluorescence (Fed channel) AC50, cells fed with added oleic acid.

Consider `CCOC(=O)c1c(-c2ccc(OCC)cc2)csc1NC(=O)CCN1C(=O)c2ccccc2C1=O`, for which the cell number change worked out at 35.9%. Further, under setting [1], the AC50 was 0.58 µM [rising, full curve]. In addition, the AC50 under setting [2] was 1.46 µM [falling, partial curve, poor fit].
On to `CCN1C(=O)[C@@H]2Cc3c([nH]c4ccccc34)C(c3cc(OC)c(OC)c(OC)c3)N2C1=S` (some centres undefined), for which the cell number change stood at 3.65%. Moreover, the AC50 under setting [2] is 29.1 µM [falling, single point].
With `Cc1nn(C)c(Oc2cccc(Cl)c2)c1C=O`, the cell number change was -2.09%. The AC50 under setting [2] was 0.184 µM [falling, partial curve, poor fit].
Regarding `CCCCOC(=O)Nc1cccc(C(C)=O)c1`, the cell number change was 23%. For the same compound, the concentration at half-maximal activity (AC50) under setting [2] is 29.1 µM [rising, single point].
Consider `CN1C(=O)CC(C(=O)Nc2ccccc2F)SC1=Nc1ccc2c(c1)OCO2` (centres undefined), for which the AC50 is 0.0146 µM [rising, full curve, poor fit] under setting [1] and 0.00517 µM [rising, full curve, poor fit] under setting [2].
For `COCCNC(=O)C1CCC(CNS(=O)(=O)c2ccc(F)cc2)CC1` (centres undefined), the AC50 under setting [2] was 29.1 µM [rising, single point].
Regarding `Nc1nnc(SCc2cc3c(cc2Cl)OCO3)s1`, the AC50 under setting [2] was 0.411 µM [falling, single point].
Consider `COc1ccc2cc(/C(C)=N/NC(=O)C3CC3)ccc2c1`, for which the AC50 by setting is: under setting [1], 0.731 µM [rising, single point]; under setting [2], 0.58 µM [rising, single point].
In the case of `N/C(Cc1ccc(Cl)cc1Cl)=N\OC(=O)c1ccccc1F`, the cell number change was 7.23%. Further, the AC50 under setting [1] was 0.00517 µM [rising, full curve, poor fit].
As to `CS(=O)(=O)N1CCN(C(=O)Cc2ccccc2Cl)CC1`, the cell number change was -36.7%. The AC50 under setting [1] is 2.06 µM [falling, full curve]. Moreover, the AC50 under setting [2] was 2.06 µM [falling, full curve].
Take `COc1ccccc1C(c1nnnn1Cc1ccccc1)N1CCN(c2nc3ccccc3s2)CC1` (centres undefined): the cell number change was found to be 44.4%. Also, the AC50 under setting [1] was 1.64 µM [rising, full curve, poor fit]. Moreover, the AC50 under setting [2] is 2.06 µM [rising, full curve].
As for `O=C(CSc1ccc(-c2ccccn2)nn1)Nc1cccc(F)c1`, the cell number change is -4.34%.
Take `CS(=O)(=O)c1ccc(NC(=O)c2cccc(S(=O)(=O)N3CCN(Cc4ccccc4)CC3)c2)cc1`: the cell number change was -4.91%.
Take `Cc1ccc(S(=O)(=O)N2CCN(Cc3cc(C(C)(C)C)ccc3O)CC2)cc1`: the cell number change is -3.41%. In addition, the AC50 under setting [2] was 20.6 µM [falling, single point].
Regarding `Cc1ccc(CNC(=O)C(CCC(N)=O)NC(=O)OCc2ccccc2)cc1` (centres undefined), the cell number change came out at 3.5%. Further, the AC50 under setting [2] was 6.51 µM [falling, single point].
Regarding `Cc1cc(C(=O)NCCC2=CCCCC2)c(C)o1`, the cell number change is -3.7%.
Regarding `CC1CCCN(C/C=C/c2ccccc2[N+](=O)[O-])C1` (centres undefined), the cell number change is -78.8%. Moreover, under setting [1], the AC50 was 29.1 µM [falling, single point]. For the same compound, the AC50 under setting [2] was 29.1 µM [falling, single point].
For `Cc1ccc(C)c(N2CCN(C(=O)c3cc(S(=O)(=O)N4CCOCC4)ccc3F)CC2)c1`, the cell number change was determined as 16.7%.
Take `CC(=O)c1cccc(NC(=O)CCc2nnc3ccc(NCc4ccco4)nn23)c1`: the cell number change was -15.6%. For the same compound, the AC50 under setting [2] is 25.9 µM [falling, partial curve, poor fit].
Regarding `O=C(CN1CCN(C(=O)c2ccco2)CC1)Nc1c2c(nc3c1CCC3)CCCC2`, the cell number change was -18.5%. In addition, the AC50 under setting [2] was 6.51 µM [falling, single point].
On to `Cc1cccc(NC(=O)CNc2cc(C)ccc2C)c1`, for which the cell number change was -11.8%.
Still for that read-out and setting: the same measure for `CNC(=O)CSc1nnc(C2CC2)n1-c1ccccc1`: -4.52%.
Take `CCOc1ccc(S(=O)(=O)N(C)c2ccc(OCC(=O)NCc3ccco3)cc2)cc1`: the cell number change came to 122%. The AC50 under setting [1] was 14.6 µM [rising, partial curve]. The AC50 under setting [2] is 20.6 µM [rising, partial curve].
`Cc1ccc(CNC(=O)CSc2ncn[nH]2)cc1`: the cell number change is 28.7%.
Regarding `CC12COC3(C(=O)Nc4cccnc4)CC1CCC32C` (centres undefined), the cell number change is 2.05%. Also, the AC50 under setting [2] was 0.00461 µM [falling, full curve, poor fit].
With `Cc1ccc2c(Cn3cc(C(F)(F)F)cc(Cl)c3=O)cc(=O)oc2c1`, the cell number change is -58.2%. For the same compound, the AC50 under setting [2] is 0.092 µM [falling, full curve, poor fit].
Take `Cc1c(C)c2c(OCC(=O)N[C@@H](Cc3ccccc3)C(=O)O)cc3c(c2oc1=O)CCC(C)(C)O3`: the cell number change turned out to be 6.53%. Further, the AC50 under setting [2] is 6.51 µM [rising, single point].
As for `Cc1csc2ncc(C(=O)Nc3ccccc3F)c(=O)n12`, the cell number change turned out to be 14.3%. The AC50 under setting [1] was 1.3 µM [rising, partial curve]. Under setting [2], the AC50 is 1.03 µM [rising, full curve].
In the case of `CC(NC(=O)Cn1nc(-c2ccccc2)c2ccccc2c1=O)c1ccccc1` (centres undefined), the cell number change is -68%. Moreover, the AC50 under setting [1] was 20.6 µM [falling, partial curve]. For the same compound, the AC50 under setting [2] is 18.4 µM [falling, partial curve].
Regarding `O=C1NC2(CCCc3ccccc32)C(=O)N1Cc1nnc(-c2ccccc2Br)o1` (centres undefined), the cell number change is -24.7%. The AC50 under setting [2] was 9.2 µM [falling, partial curve].
As for `NC(=O)C1CCN(S(=O)(=O)c2ccc3c(c2)OCCO3)CC1`, the cell number change is 11.3%. In addition, the AC50 under setting [1] was 0.731 µM [falling, single point].
With `COc1ccc(N2CCN(C(=O)CNC(=O)c3ccc(C(C)(C)C)cc3)CC2)cc1`, the cell number change amounted to 65.8%. Further, under setting [1], the AC50 is 16.4 µM [rising, single point].
For `Cc1c(C(=O)N2CCOCC2)sc(NC(=O)c2ccc3c(c2)OCO3)c1C#N`, the cell number change is -4.96%.
For `CC(NC(=O)C(C)N1CCN(Cc2ccccc2)CC1)c1ccccc1` (centres undefined), under setting [2], the AC50 is 0.92 µM [falling, full curve, poor fit].
With `O=C(Nc1cccc(Cl)c1)Nc1nnc(CC2=CCCCC2)s1`, the cell number change was -11.8%. Besides, the AC50 under setting [2] is 16.4 µM [falling, partial curve].
Regarding `Cc1cc2c3c([nH]c2cc1S(=O)(=O)NCc1ccc(CN2CCCCCC2)o1)CCCC3=O`, the cell number change was -5.81%.
Turning to `CC(C)Cc1cc(C(=O)N2N=C(C(F)F)CC2(O)C(F)F)c2ccccc2n1` (centres undefined), the cell number change is -21.2%. Besides, the AC50 under setting [2] was 18.4 µM [falling, single point].
With `N#CC1(NC(=O)COC(=O)c2cc([N+](=O)[O-])ccc2N2CCOCC2)CCCCC1`, the cell number change was determined as 39.6%. Also, the AC50 under setting [1] is 10.3 µM [rising, partial curve, poor fit].
In the case of `CC(/C=N/NC(=O)c1nn(C)c(C)c1Br)=C\c1ccccc1`, the AC50 under setting [2] was 3.26 µM [rising, partial curve, poor fit].
Regarding `Cc1noc(C)c1CSc1nc2ccccc2nc1NS(=O)(=O)c1ccc(Cl)cc1`, the cell number change is -33.4%. For the same compound, the AC50 under setting [1] was 14.6 µM [falling, partial curve]. In addition, the AC50 under setting [2] was 29.1 µM [falling, single point].
On to `O=C(COc1ccc(Br)cc1)Nc1ccncc1`, for which the cell number change is -41.3%. Further, the AC50 under setting [1] was 23.1 µM [falling, single point]. Besides, under setting [2], the AC50 is 20.6 µM [falling, single point].
On to `CCC(CC)N=C1NS(=O)(=O)c2cc([N+](=O)[O-])ccc21`, for which the cell number change is -12.7%. Also, the AC50 under setting [2] was 29.1 µM [falling, single point].
With `CCCCn1c(/N=C/c2c[nH]c3ccccc23)nc2ccccc21`, the cell number change was -46%. The AC50 under setting [1] was 29.1 µM [falling, single point]. Besides, the AC50 under setting [2] was 29.1 µM [falling, single point].
Consider `Cc1ccc(C)c(NC(=O)CSc2nc3c(c(=O)n2C)SC(C)C3)c1` (centres undefined), for which the cell number change is 46.7%. Further, the AC50 under setting [1] is 0.058 µM [rising, full curve, poor fit]. In addition, the AC50 under setting [2] is 0.0731 µM [rising, full curve, poor fit].
Consider `CCN(CC(=O)NCc1ccc(Cl)cc1)C(=O)c1cnc(Cl)c(Cl)c1`, for which the cell number change is 17.1%. Further, the concentration at half-maximal activity (AC50) under setting [2] is 6.51 µM [rising, single point].
For the compound `O=C(N/N=C/c1coc2ccccc2c1=O)c1cccc([N+](=O)[O-])c1`, the cell number change is -27.6%.
As for `C=C[C@@H]1c2ccccc2N(S(=O)(=O)c2ccc(C)cc2)[C@H](c2ccccc2C(F)(F)F)C1(C#N)C#N`, the cell number change was 11.6%. Further, the AC50 under setting [2] was 6.51 µM [rising, single point].
As for `Cc1ccoc1C(=O)Nc1cccc2ccccc12`, the AC50 was 0.00517 µM [rising, full curve, poor fit] under setting [1] and 6.51 µM [rising, partial curve] under setting [2].
`Cc1ccc(Nc2nnc(SCC(=O)Nc3cccc(S(=O)(=O)N4CCCCC4)c3)s2)cc1`: the cell number change was -5.78%. Under setting [2], the AC50 is 23.1 µM [falling, single point].
Take `COc1ccc(C(=O)Nc2sc3c(c2C(=O)O)CC(C)(C)OC3)cc1`: the cell number change is -22.5%. Further, the AC50 under setting [2] was 29.1 µM [rising, partial curve].
`COc1ccc(C(=S)N2CCCC2)cc1Br`: the cell number change was determined as 16.1%. Moreover, under setting [2], the AC50 was 29.1 µM [rising, single point].
For the compound `CCOC(=O)N1CCC(NC(=O)C2CCCCN2S(=O)(=O)c2ccc(F)cc2)CC1` (centres undefined), the cell number change came to 0.0065%. Moreover, under setting [2], the AC50 is 3.26 µM [rising, single point].
As for `Cc1cccc(NC(=O)c2cc3c(s2)-c2c(C)cccc2OC3)n1`, the cell number change was determined as 61%. For the same compound, the AC50 under setting [1] was 6.51 µM [rising, partial curve]. In addition, the AC50 under setting [2] was 0.13 µM [rising, full curve, poor fit].
In the case of `CC(C(=O)Nc1ccc(Cl)cc1)N(C)Cc1cccs1` (centres undefined), the cell number change turned out to be 14%. In addition, under setting [2], the AC50 is 2.91 µM [rising, single point].
On to `CC(C)CC(NS(=O)(=O)c1ccc2[nH]c(=O)c(=O)[nH]c2c1)C(=O)O` (centres undefined), for which the cell number change was 4.63%. The AC50 under setting [2] was 5.17 µM [falling, single point].
As to `Cc1ccc(NC(=S)Nc2ccc3cn[nH]c3c2)c(C)c1`, the cell number change is 19.5%.
With `CC(C)(C)c1ccc(NC(=O)NC2CCCc3ccccc32)cc1` (centres undefined), the cell number change is -37.4%. The AC50 under setting [1] is 4.11 µM [falling, single point]. Further, the AC50 under setting [2] was 2.59 µM [rising, single point].
Turning to `O=C(N/N=C/c1ccc(OC(=O)c2cccc(F)c2)cc1)c1cccnc1`, the cell number change came out at 1.26%. Further, under setting [2], the AC50 was 6.51 µM [rising, single point].
